From the supplement of paper PMC12823440, “Inhibitors supercharge kinase turnover through native proteolytic circuits” (Nature, 2025)
Structures can show the parent of a compound that is named as a salt. Some of the results follow. Hit calls seldom repeat between salt and free forms of one compound.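 In K562 cells expressing nanoluciferase-fused kinases, luminescence was recorded at 4 h intervals between 2 and 18 h, normalized as percent of control with DMSO at 100% and a positive control at 0%. A significant (2 sigma) signal drop marks a time point as decreased. The authors' rule for a hit is not shown and takes in more than the number of time points.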

By UniProt entry, the sequences of proteins in these tests, tags left out. Where a name states a change or a piece, a line headed by the entry shows the natural chain unless it says otherwise.
UniProt Q05397, whole entry, looked up: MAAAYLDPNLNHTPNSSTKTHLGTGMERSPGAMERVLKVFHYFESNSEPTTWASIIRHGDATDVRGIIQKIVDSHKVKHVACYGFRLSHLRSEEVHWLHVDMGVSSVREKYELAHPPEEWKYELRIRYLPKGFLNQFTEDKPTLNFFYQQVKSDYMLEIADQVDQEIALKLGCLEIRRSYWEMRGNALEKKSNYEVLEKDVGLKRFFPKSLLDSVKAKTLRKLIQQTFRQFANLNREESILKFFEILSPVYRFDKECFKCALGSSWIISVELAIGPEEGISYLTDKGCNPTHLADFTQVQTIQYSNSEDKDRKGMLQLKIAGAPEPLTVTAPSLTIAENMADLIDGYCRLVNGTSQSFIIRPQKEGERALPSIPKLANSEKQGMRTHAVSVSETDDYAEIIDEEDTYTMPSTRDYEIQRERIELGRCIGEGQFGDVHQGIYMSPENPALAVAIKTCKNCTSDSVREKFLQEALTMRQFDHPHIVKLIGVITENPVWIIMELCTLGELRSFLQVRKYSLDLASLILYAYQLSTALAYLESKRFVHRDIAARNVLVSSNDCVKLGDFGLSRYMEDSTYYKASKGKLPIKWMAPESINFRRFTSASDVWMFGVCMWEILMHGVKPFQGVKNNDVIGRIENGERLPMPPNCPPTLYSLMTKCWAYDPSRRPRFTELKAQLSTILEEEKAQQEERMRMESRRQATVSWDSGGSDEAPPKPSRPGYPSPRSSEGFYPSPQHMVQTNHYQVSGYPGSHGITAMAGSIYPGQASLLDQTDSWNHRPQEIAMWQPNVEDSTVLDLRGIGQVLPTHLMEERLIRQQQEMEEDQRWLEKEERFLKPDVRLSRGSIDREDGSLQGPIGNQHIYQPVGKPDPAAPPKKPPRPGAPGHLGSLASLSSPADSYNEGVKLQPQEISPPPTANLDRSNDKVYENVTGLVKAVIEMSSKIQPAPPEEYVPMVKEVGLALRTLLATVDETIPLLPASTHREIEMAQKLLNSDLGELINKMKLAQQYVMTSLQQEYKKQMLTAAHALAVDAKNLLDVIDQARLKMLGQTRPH
UniProt Q14289, whole entry, looked up: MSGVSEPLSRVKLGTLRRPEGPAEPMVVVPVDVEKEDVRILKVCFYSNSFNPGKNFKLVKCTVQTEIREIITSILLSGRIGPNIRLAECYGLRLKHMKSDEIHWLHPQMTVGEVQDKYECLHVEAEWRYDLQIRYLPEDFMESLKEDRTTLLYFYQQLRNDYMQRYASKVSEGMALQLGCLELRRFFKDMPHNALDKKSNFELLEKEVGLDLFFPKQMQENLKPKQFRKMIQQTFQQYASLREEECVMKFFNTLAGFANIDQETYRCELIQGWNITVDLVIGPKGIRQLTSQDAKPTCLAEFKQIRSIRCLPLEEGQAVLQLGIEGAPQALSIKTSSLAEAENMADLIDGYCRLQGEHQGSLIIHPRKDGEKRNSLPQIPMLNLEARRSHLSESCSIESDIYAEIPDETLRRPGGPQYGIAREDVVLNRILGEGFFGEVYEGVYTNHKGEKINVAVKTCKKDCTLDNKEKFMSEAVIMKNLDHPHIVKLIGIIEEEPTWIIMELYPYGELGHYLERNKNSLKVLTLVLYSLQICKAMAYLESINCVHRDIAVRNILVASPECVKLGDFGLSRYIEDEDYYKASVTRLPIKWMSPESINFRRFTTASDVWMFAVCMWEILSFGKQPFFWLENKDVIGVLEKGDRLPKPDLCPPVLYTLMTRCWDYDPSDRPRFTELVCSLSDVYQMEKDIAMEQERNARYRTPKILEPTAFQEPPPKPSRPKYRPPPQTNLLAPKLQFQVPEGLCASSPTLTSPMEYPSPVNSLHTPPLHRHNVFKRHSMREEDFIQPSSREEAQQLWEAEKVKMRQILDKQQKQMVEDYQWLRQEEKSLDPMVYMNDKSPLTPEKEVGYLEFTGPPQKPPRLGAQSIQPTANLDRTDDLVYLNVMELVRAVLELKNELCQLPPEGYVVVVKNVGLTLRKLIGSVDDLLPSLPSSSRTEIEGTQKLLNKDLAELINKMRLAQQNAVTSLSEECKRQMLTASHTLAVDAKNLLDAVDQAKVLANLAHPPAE
UniProt P07949, whole entry, looked up: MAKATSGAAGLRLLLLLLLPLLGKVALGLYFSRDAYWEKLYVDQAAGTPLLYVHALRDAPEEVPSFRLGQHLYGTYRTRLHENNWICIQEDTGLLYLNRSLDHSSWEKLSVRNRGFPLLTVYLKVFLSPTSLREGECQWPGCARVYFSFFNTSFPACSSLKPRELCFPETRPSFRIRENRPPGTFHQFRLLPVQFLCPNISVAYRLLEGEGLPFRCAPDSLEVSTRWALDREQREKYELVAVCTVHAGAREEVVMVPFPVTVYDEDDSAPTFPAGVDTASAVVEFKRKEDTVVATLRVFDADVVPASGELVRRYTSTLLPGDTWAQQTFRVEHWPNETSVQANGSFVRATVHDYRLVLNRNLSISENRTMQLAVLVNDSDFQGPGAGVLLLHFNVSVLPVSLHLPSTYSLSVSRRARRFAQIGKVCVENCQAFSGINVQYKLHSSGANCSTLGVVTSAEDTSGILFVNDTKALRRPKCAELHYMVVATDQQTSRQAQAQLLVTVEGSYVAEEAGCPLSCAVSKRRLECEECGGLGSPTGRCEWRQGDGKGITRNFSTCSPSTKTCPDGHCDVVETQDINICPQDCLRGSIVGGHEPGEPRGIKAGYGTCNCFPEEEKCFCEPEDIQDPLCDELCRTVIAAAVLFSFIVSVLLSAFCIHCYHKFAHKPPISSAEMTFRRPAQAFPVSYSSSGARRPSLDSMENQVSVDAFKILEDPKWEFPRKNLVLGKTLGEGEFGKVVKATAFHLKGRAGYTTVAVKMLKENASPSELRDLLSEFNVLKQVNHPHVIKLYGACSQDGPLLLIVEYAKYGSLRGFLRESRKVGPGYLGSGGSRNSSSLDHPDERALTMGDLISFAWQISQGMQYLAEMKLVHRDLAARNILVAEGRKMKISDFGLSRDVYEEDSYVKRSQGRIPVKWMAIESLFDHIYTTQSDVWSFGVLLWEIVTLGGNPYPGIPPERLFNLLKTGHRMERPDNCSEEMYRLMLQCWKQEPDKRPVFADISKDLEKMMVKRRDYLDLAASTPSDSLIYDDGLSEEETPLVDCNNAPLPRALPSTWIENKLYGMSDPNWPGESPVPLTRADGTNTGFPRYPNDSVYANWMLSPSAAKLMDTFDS
UniProt P07949, whole entry M918T, looked up: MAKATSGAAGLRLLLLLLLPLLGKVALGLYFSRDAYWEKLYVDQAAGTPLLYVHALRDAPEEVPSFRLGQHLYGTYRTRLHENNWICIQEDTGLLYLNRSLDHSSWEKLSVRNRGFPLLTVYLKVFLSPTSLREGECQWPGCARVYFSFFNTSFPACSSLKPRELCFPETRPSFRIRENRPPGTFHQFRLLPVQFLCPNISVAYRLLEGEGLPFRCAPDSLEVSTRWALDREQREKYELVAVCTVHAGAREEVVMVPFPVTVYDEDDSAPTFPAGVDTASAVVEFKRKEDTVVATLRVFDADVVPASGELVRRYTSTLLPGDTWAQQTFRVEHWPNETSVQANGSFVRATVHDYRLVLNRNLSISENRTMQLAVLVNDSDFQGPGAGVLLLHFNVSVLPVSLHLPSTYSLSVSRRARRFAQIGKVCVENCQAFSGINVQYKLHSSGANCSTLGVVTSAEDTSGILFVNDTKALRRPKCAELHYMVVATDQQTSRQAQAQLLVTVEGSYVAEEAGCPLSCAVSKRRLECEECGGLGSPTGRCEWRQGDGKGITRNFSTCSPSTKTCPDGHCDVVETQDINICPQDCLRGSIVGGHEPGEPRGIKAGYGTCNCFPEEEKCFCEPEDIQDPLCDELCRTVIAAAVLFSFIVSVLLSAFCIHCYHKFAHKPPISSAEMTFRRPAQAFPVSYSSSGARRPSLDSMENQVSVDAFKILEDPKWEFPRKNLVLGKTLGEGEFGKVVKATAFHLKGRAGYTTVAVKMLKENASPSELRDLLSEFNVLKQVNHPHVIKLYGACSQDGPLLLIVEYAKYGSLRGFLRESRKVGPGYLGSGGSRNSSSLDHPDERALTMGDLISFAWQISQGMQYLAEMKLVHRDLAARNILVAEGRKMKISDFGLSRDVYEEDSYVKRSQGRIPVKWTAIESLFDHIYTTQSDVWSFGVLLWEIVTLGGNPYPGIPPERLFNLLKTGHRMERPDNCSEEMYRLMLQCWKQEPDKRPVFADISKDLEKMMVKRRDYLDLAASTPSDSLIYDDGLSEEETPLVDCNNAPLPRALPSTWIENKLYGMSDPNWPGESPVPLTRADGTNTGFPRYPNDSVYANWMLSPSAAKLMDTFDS
UniProt Q9BRS2: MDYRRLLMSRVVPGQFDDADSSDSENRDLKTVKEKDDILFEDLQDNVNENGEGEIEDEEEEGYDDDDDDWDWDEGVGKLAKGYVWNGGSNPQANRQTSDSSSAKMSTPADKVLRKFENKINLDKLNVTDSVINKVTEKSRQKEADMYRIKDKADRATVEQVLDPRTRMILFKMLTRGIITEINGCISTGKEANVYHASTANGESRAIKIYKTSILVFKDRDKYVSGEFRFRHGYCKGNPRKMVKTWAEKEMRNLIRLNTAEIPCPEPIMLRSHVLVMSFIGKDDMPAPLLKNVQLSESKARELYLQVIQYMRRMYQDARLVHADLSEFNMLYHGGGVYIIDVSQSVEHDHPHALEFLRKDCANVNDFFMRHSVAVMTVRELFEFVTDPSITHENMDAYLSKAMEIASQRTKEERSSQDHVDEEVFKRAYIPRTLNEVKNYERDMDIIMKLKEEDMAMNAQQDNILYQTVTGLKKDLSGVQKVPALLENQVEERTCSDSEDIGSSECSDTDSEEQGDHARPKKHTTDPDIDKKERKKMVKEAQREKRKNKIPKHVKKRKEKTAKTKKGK
UniProt Q13546: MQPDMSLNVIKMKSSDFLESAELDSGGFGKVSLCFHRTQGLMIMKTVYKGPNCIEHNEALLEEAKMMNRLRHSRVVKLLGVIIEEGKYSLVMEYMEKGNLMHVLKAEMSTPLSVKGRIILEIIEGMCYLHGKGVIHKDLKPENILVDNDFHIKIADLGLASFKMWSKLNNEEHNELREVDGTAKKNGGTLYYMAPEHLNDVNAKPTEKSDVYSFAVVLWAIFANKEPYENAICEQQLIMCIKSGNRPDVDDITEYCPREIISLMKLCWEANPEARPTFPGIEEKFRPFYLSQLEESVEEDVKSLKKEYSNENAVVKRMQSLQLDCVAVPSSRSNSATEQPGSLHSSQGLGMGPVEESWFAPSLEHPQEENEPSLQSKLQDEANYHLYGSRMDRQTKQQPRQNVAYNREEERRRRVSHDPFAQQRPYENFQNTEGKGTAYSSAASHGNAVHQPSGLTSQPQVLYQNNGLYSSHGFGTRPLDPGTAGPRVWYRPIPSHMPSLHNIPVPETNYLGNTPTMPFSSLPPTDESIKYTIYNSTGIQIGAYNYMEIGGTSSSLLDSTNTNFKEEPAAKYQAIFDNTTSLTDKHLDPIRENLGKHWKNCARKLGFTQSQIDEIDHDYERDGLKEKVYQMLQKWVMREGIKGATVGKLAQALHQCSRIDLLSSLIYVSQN

Columns and labels:
Assay in all cases: number of time points (of 5) at which kinase-Nluc abundance scored as decreased, DMSO-normalised (count); higher = more persistent destabilization
Conditions in all cases: K562; 2-18 h
PRKCA = PRKCA (UniProt P17252)
PTK2 = PTK2 (UniProt Q05397)
PTK2B = PTK2B (UniProt Q14289)
RAF1 = RAF1 (UniProt P04049)
[1] = molecular target: RAF1_S257L (clone: RAF1_mut) (UniProt P04049)
RET = RET (UniProt P07949)
[2] = molecular target: RET_M918T (clone: RET_mut) (UniProt P07949)
RIOK1 = RIOK1 (UniProt Q9BRS2)
RIPK1 = RIPK1 (UniProt Q13546)
RIPK2 = RIPK2 (UniProt O43353)

SMILES	number of time points (PRKCA)	number of time points (PTK2)	number of time points (PTK2B)	number of time points (RAF1)	number of time points [1]	number of time points (RET)	number of time points [2]	number of time points (RIOK1)	number of time points (RIPK1)	number of time points (RIPK2)
CN1CCN(c2cnc3c(C4CCN(C(=O)c5ccc(OC(F)(F)F)cc5N)CC4)ncnc3c2)CC1 (10 µM)	0	0	0	0	0	0	0	0	0	0
COc1cc2nccc(Oc3ccc(NC(=O)NC4CC4)c(Cl)c3)c2cc1C(N)=O [Lenvatinib] (10 µM)	0	2	0	0	0	0	0	0	0	0
Cn1ncc(Cl)c1-c1cc(C(=O)N[C@H](CN)Cc2ccc(F)c(F)c2)oc1Cl [Uprosertib] (10 µM)	0	0	0	0	0	0	0	0	0	0
CN1CCN(c2cccc(Nc3nc4c(-c5ccc(S(C)(=O)=O)cc5)cccn4n3)c2)CC1 (10 µM)	0	0	0	0	0	0	0	0	0	0
C=CC(=O)Nc1cccc(Nc2nc(Nc3ccc(N4CCN(C(C)=O)CC4)cc3OC)ncc2C(F)(F)F)c1 [Rociletinib] (10 µM)	0	2	0	3	2	0	0	3	2	0
CCN1CCN(Cc2ccc(Nc3ncc(F)c(-c4cc(F)c5nc(C)n(C(C)C)c5c4)n3)nc2)CC1 [Abemaciclib (methanesulfonate)] (10 µM)	0	2	0	0	2	0	1	0	3	0
CC(=O)c1c(C)cc2cccc(O)c2c1O [Nepodin] (10 µM)	0	0	0	0	0	0	0	0	0	0
Cc1ccc(C(=O)Nc2ccc(Oc3cc4cnn(C)c4cc3-c3cn[nH]c3)c(F)c2)c(=O)n1-c1ccc(F)cc1 [Merestinib] (2.5 µM)	0	0	0	0	0	0	0	0	0	0
O=Nc1c(-c2c(O)[nH]c3ccc(F)cc23)[nH]c2ccccc12 [5'-Fluoroindirubinoxime] (10 µM)	0	0	0	0	0	5	5	0	0	0
c1cncc(CN2CCC(n3ncc4c(N5CCOCC5)nc(-c5ccc6[nH]ccc6c5)nc43)CC2)c1 (10 µM)	0	1	0	2	4	0	4	1	0	3
CC1(C)C(O[C@@H]2OC[C@@H](O)[C@H](O)[C@H]2O)CC[C@]23CC24CC[C@]2(C)[C@@H]([C@@]5(C)CC[C@@H](C(C)(C)O)O5)[C@H](O)C[C@@]2(C)C4C[C@@H](O[C@@H]2O[C@H](CO)[C@@H](O)[C@H](O)[C@H]2O)C13 (stereo not given in full) [Astragaloside IV] (10 µM)	0	0	0	0	0	0	0	0	0	0
Cn1nccc1Nc1nccc(-c2ccn([C@H](CO)c3ccc(Cl)c(F)c3)c(=O)c2)n1 [Ravoxertinib] (10 µM)	0	0	0	0	0	0	0	0	0	0
C=CC(=O)Nc1cccc(Nc2nc(Nc3ccc(N4CCN(C(C)=O)CC4)cc3OC)ncc2C(F)(F)F)c1 [Rociletinib hydrobromide] (10 µM)	0	0	0	0	3	0	0	0	0	0
COCCNc1nc2ccc(C#CC3(O)CCCCC3)cc2n1-c1ccnc(N)n1 (10 µM)	0	0	0	0	0	0	0	0	0	0
CN(C)CCSSCCNC(=O)C1CCN(C(=O)CSc2ccc(Cl)cc2)CC1 (10 µM)	0	0	0	0	0	0	0	0	0	0
O=C(NCCN1CCOCC1)c1cc2c(Oc3ccc(NC(=O)C4(C(=O)Nc5ccc(F)cc5)CC4)cc3)ccnc2[nH]1 [Tyrosine kinase inhibitor] (10 µM)	0	0	0	0	0	0	0	0	0	0
COc1cc2ncc(-c3ccccc3)nc2cc1OC [Tyrphostin AG1296] (10 µM)	0	0	0	0	0	0	0	0	0	0
Cc1c(NC(=O)c2cccn(-c3ccc(F)cc3)c2=O)ccc(Oc2ccnc(NC(=O)C3CC3)c2)c1C (2 µM)	0	0	0	0	0	0	0	0	0	0
O=C(CSC1=NCCN1)NC1CCCCCC1 [ICCB-19 (hydrochloride)] (2.5 µM)	0	0	0	2	0	0	0	0	0	0
O=C(Nc1cn[nH]c1-c1ccccn1)c1nn(C2CCNCC2)cc1Cl (10 µM)	0	1	0	0	0	0	0	0	0	0
O=c1cc(CN2CCOCC2)occ1OCCCCCSc1ccnc2cc(C(F)(F)F)ccc12 (10 µM)	0	0	0	0	0	0	0	0	0	0
C[C@@]1(c2ncncc2F)NC(=O)c2cc(-c3cn[nH]c3)ccc21 (10 µM)	0	0	0	0	0	0	0	0	0	0
Cn1cc(-c2cnn3c(N)c(Br)c([C@@H]4CCCNC4)nc23)cn1 (2.5 µM)	0	0	2	2	3	2	1	1	0	1

SMILES	number of time points (PRKCA)	number of time points (PTK2)	number of time points (PTK2B)	number of time points (RAF1)	number of time points [1]	number of time points (RET)	number of time points [2]	number of time points (RIOK1)	number of time points (RIPK1)	number of time points (RIPK2)
O=C(O)CCC(=O)Nc1ccc(Br)cn1 [Bikinin] (10 µM)	0	0	0	0	0	0	0	0	0	0
Cc1c(-c2c(F)cc(C(N)=O)c3[nH]c4c(c23)CC[C@H](C(C)(C)O)C4)cccc1-n1c(=O)c2cccc(F)c2n(C)c1=O (2.5 µM)	0	0	0	0	0	0	0	0	0	0
Oc1cc(O)c2cc(O)c(-c3cc(O)c(O)c(O)c3)[o+]c2c1 [Delphinidin (chloride)] (10 µM)	0	2	0	0	0	0	0	1	1	4
Cc1nc2sccn2c(=O)c1CCN1CCC(=C(c2ccccc2)c2ccc(F)cc2)CC1 (10 µM)	1	0	0	0	0	0	0	0	0	0
CC1CCc2c(cc(Br)c(F)c2Br)N1C=O (stereo not given) (10 µM)	0	0	0	0	0	0	0	0	0	0
CC#CC(=O)Nc1ccc2ncnc(Nc3cccc(Br)c3)c2c1 (10 µM)	0	1	0	0	0	2	2	0	0	0
c1cc(-c2c[nH]c3nccc(N4CCC[C@@]5(CCCCN5)C4)c23)ncn1 (10 µM)	0	0	1	0	0	0	0	0	0	0
CCC(C)N1c2ccccc2C(=O)N(C)c2cnc(Nc3ccc(C(=O)N4CCC(N5CCN(C)CC5)CC4)cc3OC)nc21 (stereo not given) (2.5 µM)	0	0	0	0	0	0	0	0	0	0
Cc1cc(Nc2ncnc3ccc(NC4=NC(C)(C)CO4)cc23)ccc1Oc1ccn2ncnc2c1 [Tucatinib] (2.5 µM)	0	0	0	0	0	0	0	0	0	0
CCc1cc2c(cc1N1CCC(N3CCOCC3)CC1)C(C)(C)c1[nH]c3cc(C#N)ccc3c1C2=O [Alectinib (Hydrochloride)] (2 µM)	0	0	0	0	0	0	0	0	0	0
COc1ncc(Cl)cc1S(=O)(=O)Nc1ccc(F)c(C#Cc2cnc(N)nc2)c1F (2.5 µM)	0	2	0	0	0	0	0	0	0	0
COc1cc2c(N3CCN(C(=O)Nc4ccc(OC(C)C)cc4)CC3)ncnc2cc1OCCCN1CCCCC1 [Tandutinib (hydrochloride)] (10 µM)	0	0	0	0	0	0	0	0	0	0
CC(=O)NC1CC(n2cnc(NC(=O)Cc3ccc4ccccc4c3)c2)C1 (stereo not given) (10 µM)	0	0	0	0	0	0	0	0	0	0
Oc1cc2c(cc1O)C(Cc1cccc3ccccc13)NCC2 (stereo not given) (10 µM)	0	0	0	0	0	0	0	0	0	0
Cc1[nH]c(/C=C2\C(=O)Nc3ccc(F)cc32)c(C)c1C(=O)N[C@H]1CCN(C(=O)N(C)C)C1 [Vorolanib] (10 µM)	0	0	0	0	0	0	0	0	0	0
COc1ccc(-c2ccc3c(N4CCOCC4)nc(N4C[C@@H](C)O[C@@H](C)C4)nc3n2)cc1CO (2.5 µM)	0	0	0	0	0	0	0	0	0	0
Cc1cc(Nc2ncnc3ccc(NC4=NC(C)(C)CO4)cc23)ccc1Oc1ccn2ncnc2c1 [Tucatinib (hemiethanolate)] (2.5 µM)	0	0	0	0	0	0	0	0	0	0
CCCS(=O)(=O)Nc1ccc(F)c(C(=O)c2c[nH]c3ncc(-c4ccc(Cl)cc4)cc23)c1F [Vemurafenib] (10 µM)	0	1	0	1	0	1	1	0	0	0
COc1cc(/C=C/C(=O)NCC(O)c2ccc(O)cc2)ccc1O (stereo not given) [N-Feruloyloctopamine] (2.5 µM)	0	0	0	0	0	0	0	0	0	0
c1ccc(-c2[nH]ncc2-c2ccnc3ccccc23)nc1 (10 µM)	0	0	0	0	0	0	0	0	0	0
CCc1c(C(=O)NNC(=O)C(O)c2cc(F)cc(F)c2)ccc(O)c1C (stereo not given) (10 µM)	0	0	0	0	0	0	0	0	0	0
C[C@@H]1CC[C@@H](Nc2nc(NC(C)(C)C)ncc2C(N)=O)C[C@H]1O (10 µM)	0	0	0	0	0	0	0	0	0	0

Individual results from the results shown.
Under number of time points [2], COc1cc2c(N3CCN(C(=O)Nc4ccc(OC(C)C)cc4)CC3)ncnc2cc1OCCCN1CCCCC1 [Tandutinib (hydrochloride)] (10 µM) shows 0
Under number of time points [2], Oc1cc(O)c2cc(O)c(-c3cc(O)c(O)c(O)c3)[o+]c2c1 [Delphinidin (chloride)] (10 µM) shows 0
Under number of time points (RIPK1), c1cc(-c2c[nH]c3nccc(N4CCC[C@@]5(CCCCN5)C4)c23)ncn1 (10 µM) shows 0
Under number of time points [1], Cc1[nH]c(/C=C2\C(=O)Nc3ccc(F)cc32)c(C)c1C(=O)N[C@H]1CCN(C(=O)N(C)C)C1 [Vorolanib] (10 µM) shows 0
